Binding data for 3 molecules are collected here from paper PMC12805371.

Sequences of proteins named here, by UniProt entry; tags and fusion partners are left off. A change or cut given only in a name is not applied to a line headed by its entry. Residues count along the entry.
UniProt O75808: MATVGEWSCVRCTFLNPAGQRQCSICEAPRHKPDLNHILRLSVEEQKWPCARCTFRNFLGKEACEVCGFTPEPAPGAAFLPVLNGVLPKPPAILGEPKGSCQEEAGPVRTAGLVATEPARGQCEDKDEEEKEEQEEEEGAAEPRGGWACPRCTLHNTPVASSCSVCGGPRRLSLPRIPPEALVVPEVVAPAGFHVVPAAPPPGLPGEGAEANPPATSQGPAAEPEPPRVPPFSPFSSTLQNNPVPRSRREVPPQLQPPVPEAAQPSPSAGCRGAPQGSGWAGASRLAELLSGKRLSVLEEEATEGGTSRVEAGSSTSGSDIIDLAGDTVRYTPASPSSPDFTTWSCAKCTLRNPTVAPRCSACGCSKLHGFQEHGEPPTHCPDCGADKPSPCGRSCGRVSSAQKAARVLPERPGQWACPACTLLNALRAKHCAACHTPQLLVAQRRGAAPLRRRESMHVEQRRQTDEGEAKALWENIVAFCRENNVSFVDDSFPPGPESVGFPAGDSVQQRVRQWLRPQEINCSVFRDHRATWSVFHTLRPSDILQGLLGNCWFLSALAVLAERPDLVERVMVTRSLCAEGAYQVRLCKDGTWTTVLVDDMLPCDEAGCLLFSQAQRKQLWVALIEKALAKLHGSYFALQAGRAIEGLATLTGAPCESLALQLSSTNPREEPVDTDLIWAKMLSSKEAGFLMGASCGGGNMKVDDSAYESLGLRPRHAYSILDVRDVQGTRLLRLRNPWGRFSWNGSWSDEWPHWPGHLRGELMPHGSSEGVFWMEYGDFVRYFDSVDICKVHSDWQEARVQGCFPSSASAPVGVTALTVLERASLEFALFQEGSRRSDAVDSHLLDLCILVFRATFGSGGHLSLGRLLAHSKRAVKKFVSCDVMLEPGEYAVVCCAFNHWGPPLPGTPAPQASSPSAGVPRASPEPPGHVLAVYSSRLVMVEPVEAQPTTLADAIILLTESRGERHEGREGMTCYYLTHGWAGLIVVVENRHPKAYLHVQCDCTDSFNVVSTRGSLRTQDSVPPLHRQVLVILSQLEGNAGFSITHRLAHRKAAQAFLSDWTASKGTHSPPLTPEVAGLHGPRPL
UniProt P35221: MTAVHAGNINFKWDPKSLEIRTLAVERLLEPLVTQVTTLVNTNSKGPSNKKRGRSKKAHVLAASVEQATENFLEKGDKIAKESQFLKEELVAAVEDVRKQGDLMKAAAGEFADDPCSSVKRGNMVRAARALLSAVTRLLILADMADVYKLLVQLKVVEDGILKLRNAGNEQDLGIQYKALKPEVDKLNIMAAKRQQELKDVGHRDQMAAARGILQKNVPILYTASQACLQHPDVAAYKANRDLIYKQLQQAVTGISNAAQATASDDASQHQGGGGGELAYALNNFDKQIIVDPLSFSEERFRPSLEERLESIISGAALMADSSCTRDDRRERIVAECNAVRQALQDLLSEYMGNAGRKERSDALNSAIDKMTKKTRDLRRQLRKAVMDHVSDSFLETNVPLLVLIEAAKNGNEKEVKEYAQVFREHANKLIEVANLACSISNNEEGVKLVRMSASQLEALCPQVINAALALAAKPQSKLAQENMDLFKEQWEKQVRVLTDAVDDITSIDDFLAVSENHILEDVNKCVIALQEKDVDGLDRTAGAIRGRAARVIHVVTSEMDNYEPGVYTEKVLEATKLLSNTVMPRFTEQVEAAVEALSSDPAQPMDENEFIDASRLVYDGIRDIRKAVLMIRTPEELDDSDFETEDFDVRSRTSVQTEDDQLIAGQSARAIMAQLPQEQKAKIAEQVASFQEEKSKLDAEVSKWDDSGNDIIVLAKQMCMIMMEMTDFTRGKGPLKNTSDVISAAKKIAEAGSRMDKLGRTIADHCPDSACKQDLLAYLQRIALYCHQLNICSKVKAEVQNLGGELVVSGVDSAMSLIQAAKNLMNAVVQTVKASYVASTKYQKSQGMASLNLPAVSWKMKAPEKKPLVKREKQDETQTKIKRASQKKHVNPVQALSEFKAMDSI
UniProt P22223, residues 108-829: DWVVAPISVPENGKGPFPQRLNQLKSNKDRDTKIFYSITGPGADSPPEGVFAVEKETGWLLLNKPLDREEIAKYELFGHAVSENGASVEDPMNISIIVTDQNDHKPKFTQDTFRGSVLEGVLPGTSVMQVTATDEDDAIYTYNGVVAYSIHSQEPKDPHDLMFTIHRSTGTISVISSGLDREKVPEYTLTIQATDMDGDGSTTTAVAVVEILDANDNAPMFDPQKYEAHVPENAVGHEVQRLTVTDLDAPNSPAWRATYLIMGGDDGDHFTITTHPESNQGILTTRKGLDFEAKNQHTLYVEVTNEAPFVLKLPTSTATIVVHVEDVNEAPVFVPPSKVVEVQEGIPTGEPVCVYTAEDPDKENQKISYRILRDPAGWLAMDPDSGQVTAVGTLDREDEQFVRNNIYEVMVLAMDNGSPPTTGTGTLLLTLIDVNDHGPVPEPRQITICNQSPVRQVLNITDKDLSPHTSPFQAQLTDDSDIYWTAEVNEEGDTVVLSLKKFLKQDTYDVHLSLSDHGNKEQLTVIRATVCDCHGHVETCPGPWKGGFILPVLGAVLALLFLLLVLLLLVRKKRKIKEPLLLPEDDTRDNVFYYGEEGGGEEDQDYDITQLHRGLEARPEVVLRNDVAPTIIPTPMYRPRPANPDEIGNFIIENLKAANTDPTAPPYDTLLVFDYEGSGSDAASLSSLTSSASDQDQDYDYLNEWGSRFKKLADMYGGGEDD

Results are given in words; binding and its absence hold for the method and conditions named. In cells and extracts the contact can be indirect. Here binding means that the protein was enriched with, or labelled near, the bait; the list need not be complete. No binding means not detected with the bait.

Assay [1] concerns the target FLAG-tagged protease-inactive CAPN15C552S (human) (UniProt O75808). Kind of assay: affinity purification with mass spectrometry; anti-FLAG immunoprecipitates from KO, WTtg, CStg and NEtg cells; in-gel digestion, LC-MS, intensity-based label-free quantification, biological duplicates.
In assay [2] the target is FLAG-tagged WT CAPN15 (human) (UniProt O75808). The description is as above.

With “α-catenin/CTNNA1 (from UniProt P35221 1-906)”, the binding result in assay [1] is “binds”. Still for that read-out and setting: with “P-cadherin/CDH3 (from UniProt P22223 108-829)” the entry was “binds”.

B1: p120-catenin (protein, UniProt O60716 1-968)
chain: MDDSEVESTASILASVKEQEAQFEKLTRALEEERRHVSAQLERVRVSPQDANPLMANGTLTRRHQNGRFVGDADLERQKFSDLKLNGPQDHSHLLYSTIPRMQEPGQIVETYTEEDPEGAMSVVSVETSDDGTTRRTETTVKKVVKTVTTRTVQPVAMGPDGLPVDASSVSNNYIQTLGRDFRKNGNGGPGPYVGQAGTATLPRNFHYPPDGYSRHYEDGYPGGSDNYGSLSRVTRIEERYRPSMEGYRAPSRQDVYGPQPQVRVGGSSVDLHRFHPEPYGLEDDQRSMGYDDLDYGMMSDYGTARRTGTPSDPRRRLRSYEDMIGEEVPSDQYYWAPLAQHERGSLASLDSLRKGGPPPPNWRQPELPEVIAMLGFRLDAVKSNAAAYLQHLCYRNDKVKTDVRKLKGIPVLVGLLDHPKKEVHLGACGALKNISFGRDQDNKIAIKNCDGVPALVRLLRKARDMDLTEVITGTLWNLSSHDSIKMEIVDHALHALTDEVIIPHSGWEREPNEDCKPRHIEWESVLTNTAGCLRNVSSERSEARRKLRECDGLVDALIFIVQAEIGQKDSDSKLVENCVCLLRNLSYQVHREIPQAERYQEAAPNVANNTGPHAASCFGAKKGKDEWFSRGKKPIEDPANDTVDFPKRTSPARGYELLFQPEVVRIYISLLKESKTPAILEASAGAIQNLCAGRWTYGRYIRSALRQEKALSAIADLLTNEHERVVKAASGALRNLAVDARNKELIGKHAIPNLVKNLPGGQQNSSWNFSEDTVISILNTINEVIAENLEAAKKLRETQGIEKLVLINKSGNRSEKEVRAAALVLQTIWGYKELRKPLEKEGWKKSDFQVNLNNASRSQSSHSYDDSTLPLIDRNQKSDKKPDREEIQMSNMGSNTKSLDNNYSTPNERGDHNRTLDRSGDLGDMEPLKGTTPLMQDEGQESLEEELDVLVLDDEGGQVSYPSMQKI
Consider B1, for which the binding result in assay [2] and in assay [1] was “no binding” each time.
